HELM strings list residues between dots; [ac] is acetyl, [am] amide, other brackets name non-standard units.
Assay: peptide synthesis
Details: whole synthesis, RP-HPLC

With “PEPTIDE1{H.[dS].Q.G.T.F.T.S.D.L.S.[LysN3].Y.L.E.E.E.A.V.R.E.F.I.A.W.L.K.N.G.G.P.S.R.H.Y.L.N.L.V.T.R.Q.R.Y.[am]}$$$$V2.0” the “final HPLC purity” value was 95.05%.
